According to paper PMC4301922:
These are yes or no findings as the source states them, for the method shown. In cells and extracts the contact can be indirect. Some results given as binding are weak or reduced against the parent protein; the word gives no strength.

Amino acid sequences for entries named in this document (tags omitted).
UniProt Q9UJ71: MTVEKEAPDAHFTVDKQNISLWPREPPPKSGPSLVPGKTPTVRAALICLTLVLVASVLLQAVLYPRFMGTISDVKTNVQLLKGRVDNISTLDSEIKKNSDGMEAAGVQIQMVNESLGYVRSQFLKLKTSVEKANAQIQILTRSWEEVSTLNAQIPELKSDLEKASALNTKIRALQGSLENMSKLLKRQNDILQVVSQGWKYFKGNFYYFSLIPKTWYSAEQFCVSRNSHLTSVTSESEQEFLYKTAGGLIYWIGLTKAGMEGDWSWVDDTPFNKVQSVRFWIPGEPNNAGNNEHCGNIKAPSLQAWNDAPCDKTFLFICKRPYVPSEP
UniProt Q03135: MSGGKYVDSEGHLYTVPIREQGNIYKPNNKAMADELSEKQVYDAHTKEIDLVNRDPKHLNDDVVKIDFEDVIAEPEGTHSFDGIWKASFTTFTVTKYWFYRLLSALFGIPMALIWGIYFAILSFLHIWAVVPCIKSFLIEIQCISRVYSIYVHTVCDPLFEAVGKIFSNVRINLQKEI

Target: langerin (human (endogenous in primary Langerhans cells)) (UniProt Q9UJ71)
Experiment: co-IP; whole cell extracts of primary human LCs in RIPA lysis buffer; 40 μg of extract; caveolin and langerin each immunoprecipitated (anti-Caveolin, Cell Signalling; 10E2 anti-langerin) on protein A/G PLUS agarose beads; immunoblot with Goat-anti-langerin or Rabbit-anti-Caveolin-1

- binding: binds
Substance: caveolin-1 (from UniProt Q03135 1-178)
